Source: article PMC9939006
No constants are given. Whether binding was seen depends on the method and setting. In cells and extracts the contact can be indirect. Some entries that bind do so weakly or less than the wild type.

Biological target: B-cell CLL/lymphoma 7 protein family member C (BCL7C) (human (endogenous in SW-13)) (UniProt Q8WUZ0)
Assay: co-IP; immunoprecipitation (anti-V5, BCL7B, BCL7C, BAF53a, BAF155, GLTSCR1L, BAF45b or IgG) from iBRG1 or i∆HSA cells after 24 h doxycycline; cells crosslinked with 1% formaldehyde, high-salt extraction (420 mM NaCl), nuclease, diluted 1:5 in IP buffer (100 mM NaCl, 0.1% NP-40), Protein G Dynabeads, Western blot

In the case of “iBRG1 (inducible WT BRG1, Brahma-related gene 1, with C-terminal V5 tag) (from UniProt P51532 1-1647) (enzyme)”, the binding is reported as “binds”.
